Results deposited as PubChem BioAssay AID1259289 (Sanger Institute, 2017)
Shown is an unselected part of 794 reagents tested. 16 of all reagents (2%) were called active. 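Active marks cell loss from silencing alone; drug synergy shows only in the synergy scores, not the calls.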 Reagents against one gene are numbered here. No viability above 1 is reported: the scale is capped. Not all columns of the deposit are shown. The record does not give: the amount of reagent, the time to read-out.

Screen: 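Kinases that bowel cancer cells need to survive, with or without BYL719, cetuximab, trametinib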 (primary screen)
Cells: human LS513 colorectal cancer cells
Reagent: siRNA pool against human genes
Challenge: anchor drug BYL719 at 1 µM, cetuximab at 5 µg/ml or trametinib at 10 nM, or DMSO vehicle alone; exposure time not given
Read-out: 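Cell survival as a fraction of the non-targeting pool, replicate means; robust z-score for silencing alone under DMSO; synergy score for each of BYL719, cetuximab and trametinib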
Direction: robust z-score, siRNA alone (DMSO): higher = more viable cells; strongly negative means essential; viability with DMSO vs control: higher = more viable cells
Active means: 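a gene counts as active if its DMSO-only robust z-score falls under -3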
Calls: active = essential (knock-down alone); inactive = not essential

no.	Target gene	pool no.	robust z-score, siRNA alone (DMSO)	viability with DMSO vs control (fraction of control)	activity call
1	TSKS	1	0.561	1	inactive
2	BMX	1	0.561	1	inactive
3	RTN4	1	0.561	1	inactive
4	BMPR1A	1	-0.191	0.893	inactive
5	NEK11	1	0.561	1	inactive
6	STYK1	1	0.561	1	inactive
7	VRK2	1	0.561	1	inactive
8	HSPB8	1	-0.211	0.89	inactive
9	NUAK1	1	-2.55	0.558	inactive
10	DLG1	1	0.561	1	inactive
11	CDKN1A	1	0.561	1	inactive
12	GRK3	1	0.561	1	inactive
13	AKAP9	1	-0.236	0.887	inactive
14	CDADC1	1	0.259	0.957	inactive
15	COQ8B	1	0.561	1	inactive
16	MAPK1	1	-1.29	0.738	inactive
17	PKLR	1	-0.0178	0.918	inactive
18	PKN3	1	0.561	1	inactive
19	MAPK8	1	0.561	1	inactive
20	STK10	1	-0.634	0.83	inactive
21	BMPR2	1	-1.09	0.765	inactive
22	PRKCH	1	-0.452	0.856	inactive
23	CRKL	1	0.561	1	inactive
24	DBF4	1	0.561	1	inactive
25	STK32C	1	0.561	1	inactive
26	TSSK6	1	0.28	0.96	inactive
27	CDK6	1	-1.21	0.748	inactive
28	HIPK2	1	0.561	1	inactive
29	NR4A2	1	-0.69	0.822	inactive
30	MAPK13	1	0.561	1	inactive
31	ILK	1	0.561	1	inactive
32	ILK	2	-0.497	0.85	inactive
33	MVK	1	0.561	1	inactive
34	FGR	1	-0.861	0.798	inactive
35	FES	1	-1.37	0.726	inactive
36	GRK4	1	0.136	0.94	inactive
37	DMPK	1	-0.617	0.833	inactive
38	PTK7	1	-1.59	0.694	inactive
39	NEK4	1	-0.93	0.788	inactive
40	RPS6KC1	1	0.561	1	inactive
41	MARK3	1	0.561	1	inactive
42	FRK	1	0.561	1	inactive
43	MED24	1	0.561	1	inactive
44	PIK3R4	1	0.561	1	inactive
45	TGFBR2	1	-0.102	0.906	inactive
46	GSK3B	1	0.561	1	inactive
47	MAP3K14	1	0.561	1	inactive
48	TRIM27	1	-0.459	0.855	inactive
49	SKAP1	1	0.561	1	inactive
50	FYN	1	0.561	1	inactive

Part of the list above, set out differently:
Target gene | pool no. | robust z-score, siRNA alone (DMSO) | viability with DMSO vs control (fraction of control) | activity call
MAPK8 | 1 | 0.561 | 1 | inactive
STK10 | 1 | -0.634 | 0.83 | inactive
BMPR2 | 1 | -1.09 | 0.765 | inactive
PRKCH | 1 | -0.452 | 0.856 | inactive
CRKL | 1 | 0.561 | 1 | inactive
DBF4 | 1 | 0.561 | 1 | inactive
STK32C | 1 | 0.561 | 1 | inactive
